## Percent effect of library compounds

By UniProt entry, the sequences of proteins in these tests, tags left out.
UniProt P9WNZ1, whole entry: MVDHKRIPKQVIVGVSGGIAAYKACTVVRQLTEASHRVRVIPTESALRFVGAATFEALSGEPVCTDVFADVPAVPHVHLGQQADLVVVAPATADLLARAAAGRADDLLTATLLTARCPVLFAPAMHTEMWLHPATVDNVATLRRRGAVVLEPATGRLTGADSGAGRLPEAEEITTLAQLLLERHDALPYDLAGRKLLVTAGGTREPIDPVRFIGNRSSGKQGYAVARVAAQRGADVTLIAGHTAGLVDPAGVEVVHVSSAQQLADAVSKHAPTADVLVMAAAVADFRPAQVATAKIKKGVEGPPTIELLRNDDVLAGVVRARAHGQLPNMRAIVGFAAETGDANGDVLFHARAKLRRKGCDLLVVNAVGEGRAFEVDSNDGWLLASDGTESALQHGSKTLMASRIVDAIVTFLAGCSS
UniProt P9WFT3, whole entry: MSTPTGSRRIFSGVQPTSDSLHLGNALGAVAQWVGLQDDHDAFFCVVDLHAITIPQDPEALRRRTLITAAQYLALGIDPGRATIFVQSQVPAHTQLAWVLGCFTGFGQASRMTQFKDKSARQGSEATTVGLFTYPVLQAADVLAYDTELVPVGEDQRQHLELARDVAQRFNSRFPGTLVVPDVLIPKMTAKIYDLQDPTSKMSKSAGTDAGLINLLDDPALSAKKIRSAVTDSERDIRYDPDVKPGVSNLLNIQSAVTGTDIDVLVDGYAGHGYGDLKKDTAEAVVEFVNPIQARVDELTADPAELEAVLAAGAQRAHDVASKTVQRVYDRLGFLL
UniProt I6X8D2, whole entry: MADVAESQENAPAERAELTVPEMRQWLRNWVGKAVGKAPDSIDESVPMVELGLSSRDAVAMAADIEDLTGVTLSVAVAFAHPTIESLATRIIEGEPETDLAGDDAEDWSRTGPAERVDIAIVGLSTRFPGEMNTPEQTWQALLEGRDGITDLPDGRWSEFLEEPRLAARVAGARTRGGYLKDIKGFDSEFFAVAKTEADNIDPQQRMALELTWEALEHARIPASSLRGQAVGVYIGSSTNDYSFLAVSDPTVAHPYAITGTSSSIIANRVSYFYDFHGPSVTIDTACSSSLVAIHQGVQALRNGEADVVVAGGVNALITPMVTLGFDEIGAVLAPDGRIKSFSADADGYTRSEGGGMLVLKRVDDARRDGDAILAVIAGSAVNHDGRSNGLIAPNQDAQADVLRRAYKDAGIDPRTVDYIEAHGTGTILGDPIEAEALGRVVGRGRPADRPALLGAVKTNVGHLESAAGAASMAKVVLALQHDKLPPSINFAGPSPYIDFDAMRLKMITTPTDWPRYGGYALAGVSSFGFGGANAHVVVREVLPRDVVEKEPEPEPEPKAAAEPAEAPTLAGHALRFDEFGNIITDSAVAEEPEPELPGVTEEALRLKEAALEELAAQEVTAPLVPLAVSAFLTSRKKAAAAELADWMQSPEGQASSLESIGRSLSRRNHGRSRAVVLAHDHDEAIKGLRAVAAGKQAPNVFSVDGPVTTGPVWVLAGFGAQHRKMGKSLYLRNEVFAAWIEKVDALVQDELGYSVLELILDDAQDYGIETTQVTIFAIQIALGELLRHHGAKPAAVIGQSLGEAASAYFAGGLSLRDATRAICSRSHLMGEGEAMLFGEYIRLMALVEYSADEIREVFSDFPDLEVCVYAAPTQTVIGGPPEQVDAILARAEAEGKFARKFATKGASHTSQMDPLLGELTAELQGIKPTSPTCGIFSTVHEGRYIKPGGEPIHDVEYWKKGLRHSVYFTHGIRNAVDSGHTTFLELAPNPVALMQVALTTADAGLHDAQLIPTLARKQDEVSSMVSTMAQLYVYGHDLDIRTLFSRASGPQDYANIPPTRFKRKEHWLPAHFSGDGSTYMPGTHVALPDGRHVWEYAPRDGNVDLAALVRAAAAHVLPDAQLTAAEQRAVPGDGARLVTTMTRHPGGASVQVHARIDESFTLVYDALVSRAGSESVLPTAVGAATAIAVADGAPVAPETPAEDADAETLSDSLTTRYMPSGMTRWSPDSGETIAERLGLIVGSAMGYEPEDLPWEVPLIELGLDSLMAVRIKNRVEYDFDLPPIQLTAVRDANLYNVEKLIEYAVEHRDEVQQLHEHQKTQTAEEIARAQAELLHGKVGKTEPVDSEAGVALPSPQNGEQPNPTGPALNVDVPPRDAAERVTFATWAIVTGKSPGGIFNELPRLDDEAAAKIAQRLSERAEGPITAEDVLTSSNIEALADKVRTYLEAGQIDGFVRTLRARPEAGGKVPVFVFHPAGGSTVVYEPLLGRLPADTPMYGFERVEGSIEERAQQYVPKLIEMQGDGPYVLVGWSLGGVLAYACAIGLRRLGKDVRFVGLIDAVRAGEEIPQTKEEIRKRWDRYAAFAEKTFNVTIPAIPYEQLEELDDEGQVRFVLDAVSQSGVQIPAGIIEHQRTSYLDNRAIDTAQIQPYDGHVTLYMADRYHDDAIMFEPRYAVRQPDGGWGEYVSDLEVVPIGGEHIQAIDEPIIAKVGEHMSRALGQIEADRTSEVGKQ

Source: ChEMBL document CHEMBL3988442, “University of Dundee, Small-Polar-MMV Screening Library” (2021).

A: 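Enzyme assay of CoaBC with a phosphate dye (Biomol Green) read at 650 nm. Target: Coenzyme A biosynthesis protein CoaBC, Mycobacterium tuberculosis (UniProt P9WNZ1). Tested at 30 µM. Higher reads as stronger inhibition, judged from the few compounds that gave an IC50. Most strong results did not repeat in a second test. Of about 67,000 compounds tested this way, about 40 (0.06%) reached 50% or more in at least one test.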
B: 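Tryptophan-tRNA ligase, Mycobacterium tuberculosis (UniProt P9WFT3). Enzyme assay of tryptophanyl-tRNA synthetase; the read-out is not stated. Tested at 10 µM. Direction is not recorded; retested compounds ran higher, which suggests that high means inhibition. Size under these conditions: about 65,000 compounds, about 64 of them at 50% or above in at least one test.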
C: 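Enzyme assay of the thioesterase domain of polyketide synthase 13; the read-out is not stated. Target: Polyketide synthase Pks13, Mycobacterium tuberculosis (UniProt I6X8D2). Compounds at 30 µM. The record gives no direction; the compounds picked for IC50 retests had high values, so higher reads as stronger inhibition. Of about 67,000 compounds tested this way, about 300 (0.46%) reached 50% or more in at least one test.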

Each number is a percent effect as filed. The controls that fix the scale are not given in the record; negative values are as filed. This is an unselected part of the compounds tested. Two or more numbers in one place are separate tests of the same structure; such repeats can differ widely.

For Cc1cc2n(n1)CC(CNCc1ccc(-n3cccn3)cc1)CN2 (stereo not drawn) the result was A: 7.985%; B: -3.829%; C: -7.404%.
For c1ccc(-c2nnc([C@H]3CCN(C4CCOCC4)C3)o2)cc1 the result was A: 12.14%; B: -0.2276%; C: -27.54%.
For Cc1cc2nc(CO[C@H]3CN(C4CCCCC4)C[C@H]3F)[nH]c2cc1C the result was A: 1.545%; B: -0.6829%; C: 12.76%.
For CN(C)C(=O)C1CN(Cc2cccs2)CCN(S(C)(=O)=O)C1 (stereo not drawn) the result was A: 1.716%; C: 11.06%.
For O=C(CC1CC1)N1Cc2nccn2CC(Cn2ncccc2=O)C1 (stereo not drawn) the result was A: -5.549%; B: -6.649%; C: -9.949%.
For CCOc1ccnc(N2CCN(C(=O)c3c(CC)noc3C)CC2)n1 the result was A: 0%; B: -4.126%; C: -7.733%.
For COCCC1CCN([C@@H]2c3ccccc3C3(CCNCC3)[C@H]2O)CC1 the result was A: 20.45% and 5.291%; B: -0.122%; C: -6.315%.
For Cn1cccc1C(=O)N1CCn2cc(CN3CCCC3)nc2C1 the result was A: 6.75%; B: -2.971%; C: -10.05%.
For CC[C@@]1(O)CCN(C(=O)c2cccc3cc(C)oc23)C[C@H]1O the result was A: 0.1242%; B: -0.1447%; C: -8.355%.
For COc1c(C2CCCN2Cc2nc(C)c(C)o2)c(C)nn1C (stereo not drawn) the result was A: 6.743%; B: -3.962%; C: -21.03%.
For Cc1cnn(C2CCN(Cc3ccccc3)C2)c1N (stereo not drawn) the result was A: 6.167%; B: 22.41%; C: 0.5777%.
For CC(C)c1n[nH]c(C2CN(C(=O)c3cnccn3)CCO2)n1 (stereo not drawn) the result was A: 3.259%; B: 16.09%; C: -24.42%.
For CC(=O)N1CCN(CCNS(=O)(=O)c2ccc(F)c(F)c2)CC1 the result was A: -1.324%; B: -3.522%; C: -11.19%.
For CC(C)(C)c1cc(C(=O)N2CCOC(c3cnccn3)C2)[nH]n1 (stereo not drawn) the result was A: 1.196%; B: -4.036%; C: 13.7%.
For Cn1cccc1C(=O)N1CCC2(CCN2c2ncccn2)C1 (stereo not drawn) the result was A: 1.951%; C: 12.17%.
For O=C(NCCN1CCCCCC1=O)c1ccc(=O)[nH]n1 the result was A: -0.2273%; B: -3.764%; C: 0.267%.
For COc1ccc(CN2CCCn3cnc(COC(C)C)c3C2)cc1 the result was A: -2.284%; B: -1.07%; C: -48.53%.
For O=C(Cn1cnc2cc3c(cc21)OCCCO3)NCCc1ccccc1 the result was A: -7.524%; B: -6.272%; C: -0.6921%.
For CCOCc1nc(N2CCCC2)sc1C(=O)NCc1ccco1 the result was A: 1.449%; B: -0.8482%; C: 3.115%.
For O=C(CC1CCc2ccccc21)N1CCC(C(=O)O)(n2ccnc2)CC1 (stereo not drawn) the result was A: -0.9434%; B: 1.232%; C: -46.62%.
For CN(Cc1noc(C2CC2)n1)C1CCN(Cc2ccc(F)c(F)c2)C1 (stereo not drawn) the result was A: 0%; B: -4.992%; C: -9.322%.
For Cc1cnc(N2CCC3(CCCN(c4ccc(C)nn4)C3)C2)nc1 (stereo not drawn) the result was A: 2.366%; B: -4.523%; C: 6.302%.
For Cc1cc2[nH]c(=O)oc2cc1S(=O)(=O)N1C[C@@H](N(C)C)[C@H](C(C)C)C1 the result was A: -0.5981%; B: 1.708%; C: -4.13%.
For c1cnn(C2CN(Cc3noc(C4CC4)n3)C2)c1 the result was A: -0.2066%; B: 3.381%; C: -13.74%.
For CC(C)NC(=O)Cn1cc(-c2ccccc2)cn1 the result was A: 0.7833%; B: 0.4873%; C: -10.2%.
For CCC(C)(C)NC(=O)C[S+]([O-])Cc1csc(C2CCCC2)n1 (stereo not drawn) the result was A: 14.8%; B: 26.74%; C: 3.627%.
For COc1cc(C2SCC(=O)Nc3ccsc32)cc(OC)c1O (stereo not drawn) the result was A: -10.06%; B: -1.104%; C: -54.01%.
For Cc1ccccc1C(=O)NC(C)c1cnn(C)c1 (stereo not drawn) the result was A: 3.505%; B: -2.3%; C: -11.23%.
For O=S(=O)(C1CC1)N1CC[C@@H]2[C@@H]1CCN2Cc1cccs1 the result was A: 7.172%; B: -3.477%; C: -23.92%.

For reference, 3 entries once more:

* Cc1cnn(C2CCN(Cc3ccccc3)C2)c1N (stereo not drawn) : A: 6.167%; B: 22.41%; C: 0.5777%
* O=C(CC1CC1)N1Cc2nccn2CC(Cn2ncccc2=O)C1 (stereo not drawn) : A: -5.549%; B: -6.649%; C: -9.949%
* Cc1ccccc1C(=O)NC(C)c1cnn(C)c1 (stereo not drawn) : A: 3.505%; B: -2.3%; C: -11.23%